Reference: PMC12721327
No constants are given. Whether binding was seen depends on the method and setting. Binding seen in cells or lysates may run through a third protein. Some results given as binding are weak or reduced against the parent protein; the word gives no strength. Sequences can lack the tags named with a protein.

B1: QK5 with deletion of 285–293 (protein, UniProt Q91XU1)
chain: MVGEMETKENPNPTPDYLMQLMNDKKLMSSLPNFCGIFNHLERLLDEEISRVRKDMYNDTLNGSTEKRSAELPDAVGPIVQLQEKLYVPVKEYPDFNFVGRILGPRGLTAKQLEAETGCKIMVRGKGSMRDKKKEEQNRGKPNWEHLNEDLHVLITVEDAQNRAEIKLKRAVEEVKKLLVPAAEGEDSLKKMQLMELAILNGTYRDANIKSPALAFSLAATAQAAPRIITGPAPVLPPAALRTPTPAGPTIMPLIRQIQTAVMPNGTPHPTAAIVPPGPEAGLILAPATSILEYPIEPSGVLGAVATKVRRHDMRVHPYQRIVTADRAATGN
B2: Venus-MBNL1 (protein, UniProt Q9NR56-5 1-382)
chain: MAVSVTPIRDTKWLTLEVCREFQRGTCSRPDTECKFAHPSKSCQVENGRVIACFDSLKGRCSRENCKYLHPPPHLKTQLEINGRNNLIQQKNMAMLAQQMQLANAMMPGAPLQPVPMFSVAPSLATNASAAAFNPYLGPVSPSLVPAEILPTAPMLVTGNPGVPVPAAAAAAAQKLMRTDRLEVCREYQRGNCNRGENDCRFAHPADSTMIDTNDNTVTVCMDYIKGRCSREKCKYFHPPAHLQAKIKAAQYQVNQAAAAQAAATAAAMGIPQAVLPPLPKRPALEKTNGATAVFNTGIFQYQQALANMQLQQHTAFLPPGSILCMTPATSVVPMVHGATPATVSAATTSATSVPFAATATANQIPIISAEHLTSHKYVTQM
B3: Myc-QK (protein, UniProt Q91XU1 1-341)
chain: MVGEMETKENPNPTPDYLMQLMNDKKLMSSLPNFCGIFNHLERLLDEEISRVRKDMYNDTLNGSTEKRSAELPDAVGPIVQLQEKLYVPVKEYPDFNFVGRILGPRGLTAKQLEAETGCKIMVRGKGSMRDKKKEEQNRGKPNWEHLNEDLHVLITVEDAQNRAEIKLKRAVEEVKKLLVPAAEGEDSLKKMQLMELAILNGTYRDANIKSPALAFSLAATAQAAPRIITGPAPVLPPAALRTPTPAGPTIMPLIRQIQTAVMPNGTPHPTAAIVPPGPEAGLIYTPYEYPYTLAPATSILEYPIEPSGVLGAVATKVRRHDMRVHPYQRIVTADRAATGN

Each binder was assayed against FLAG-RBPMSA (wild type) (rat) (assay: co-IP; pairs of epitope-tagged proteins co-expressed in HEK293T; 1 mg lysate in RIPA buffer (150 mM NaCl, 1% Triton X-100, 0.1% SDS, 50 mM Tris pH 7.5) with benzonase; anti-FLAG immunoprecipitation of FLAG-RBPMS overnight at 4°C, Protein G Dynabeads; western blot).

| binding | Binder |
| --- | --- |
| binds | B1 |
| binds | B2 |
| binds | B3 |
